{"source": "paper PMC7819943", "about": "“Rice protein-binding microarrays: a tool to detect cis-acting elements near promoter regions in rice”", "note": "The list shows a part of the results.", "data": [{"molecular_target": "T1, OsSMF1 (Oryza sativa, UniProt Q6ZLB0 1-436)", "T1 sequence": "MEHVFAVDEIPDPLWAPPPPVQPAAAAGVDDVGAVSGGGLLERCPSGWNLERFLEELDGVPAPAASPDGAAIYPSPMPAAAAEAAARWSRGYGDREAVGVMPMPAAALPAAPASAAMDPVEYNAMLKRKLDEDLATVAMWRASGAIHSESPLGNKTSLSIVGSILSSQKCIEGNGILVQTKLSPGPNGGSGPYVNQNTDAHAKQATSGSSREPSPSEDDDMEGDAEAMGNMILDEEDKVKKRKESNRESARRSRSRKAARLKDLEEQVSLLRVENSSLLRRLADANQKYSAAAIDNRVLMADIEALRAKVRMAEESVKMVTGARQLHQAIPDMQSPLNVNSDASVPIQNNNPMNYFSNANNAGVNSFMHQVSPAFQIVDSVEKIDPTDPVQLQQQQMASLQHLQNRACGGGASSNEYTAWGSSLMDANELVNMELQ", "assay": "protein-binding microarray (RPBM); PBS, 2% BSA, 51.3 ng/ul salmon testes DNA, 50 uM zinc acetate, 200 nM TF, 25 C, 1 h; high values mean tight binding", "settings": "protein: recombinant; tags: N-terminal polyhistidine and DsRed monomer fusion (pET32a); chain copies: 2; label: CyDye5-dUTP incorporated in the synthesized complementary strand; 3' TTTTT single-stranded linker to array surface; dsDNA, one strand shown", "in_short": "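Transcription factors were made in E. coli BL21-CodonPlus as N-terminal fusions to a polyhistidine tag and DsRed, then purified on Ni–NTA. After primer extension with Cy5-dUTP and blocking with 2% BSA, a custom Agilent array was exposed for 1 h at 25 °C to 200 nM protein in PBS, 2% BSA, salmon testes DNA and 50 µM zinc acetate. Washed arrays were scanned on an Axon 4000B, and the binding signal is per-feature fluorescence intensity in arbitrary units.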", "values": [{"sequence": "TACATACCCGTCTCGCGATTAGCTTATGTGGCAAGGGCATCGGAGTCACCTAGTGCAG", "binding signal": "6980 fluorescence intensity (a.u.)"}, {"sequence": "CCGCGCAATCTGCGTGGGCCACCACCATGCTAGTTACTACCGGAGTCACCTAGTGCAG", "binding signal": "3790 fluorescence intensity (a.u.)"}, {"sequence": "TTGAATAGTGGTCCAAAATGAAACACCGGCAATAAAAGGTCGGAGTCACCTAGTGCAG", "binding signal": "32600 fluorescence intensity (a.u.)"}, {"sequence": "CTGACGTGACGTCCACGTGACAACCTGGTCATTAAATAAACGGAGTCACCTAGTGCAG", "binding signal": "6140 fluorescence intensity (a.u.)"}, {"sequence": "GACGTAATTAGCGCAAACTGTTAGGCCCAAATGCGTCATTCGGAGTCACCTAGTGCAG", "binding signal": "3870 fluorescence intensity (a.u.)"}, {"sequence": "TTTCCCTGATAATAATAACCGACACGCGTAAGCTCTTGAACGGAGTCACCTAGTGCAG", "binding signal": "3360 fluorescence intensity (a.u.)"}, {"sequence": "CCCTCCTTGACAAGGTCAGTGTCCACGTCCCTCGCCGCCGCGGAGTCACCTAGTGCAG", "binding signal": "11400 fluorescence intensity (a.u.)"}, {"sequence": "ACGGCCCAGTCATCGGTCCGTTGGCCACGCGATTTCTCAGCGGAGTCACCTAGTGCAG", "binding signal": "4420 fluorescence intensity (a.u.)"}, {"sequence": "GAGTACTCGTACTCCACGGTAGTACTACTGCTCCGTCCGTCGGAGTCACCTAGTGCAG", "binding signal": "3500 fluorescence intensity (a.u.)"}, {"sequence": "CGCCACCCTGGTGCCACGTGTGTACCACATAGGAGCAAAACGGAGTCACCTAGTGCAG", "binding signal": "14400 fluorescence intensity (a.u.)"}, {"sequence": "GTGGAATATTTCTGATCATGGTTTGGGAATAAACGTTCTGCGGAGTCACCTAGTGCAG", "binding signal": "3310 fluorescence intensity (a.u.)"}, {"sequence": "GGAGCGGGGCGGCGGCGGGCGGAGTGGGCCGATGATGAGGCGGAGTCACCTAGTGCAG", "binding signal": "3230 fluorescence intensity (a.u.)"}, {"sequence": "AATAATGCTGCCACGTCAATCTTATTGGCATGAAAATAAGCGGAGTCACCTAGTGCAG", "binding signal": "8910 fluorescence intensity (a.u.)"}, {"sequence": "ACACGACGCGTACGTACGTCCAGTTCTTGGCTAAGCTTCACGGAGTCACCTAGTGCAG", "binding signal": "3390 fluorescence intensity (a.u.)"}, {"sequence": "ACGCCGCCGCCGCCACCGCCACCGTCGCCGCCGCGCGTCCCGGAGTCACCTAGTGCAG", "binding signal": "4080 fluorescence intensity (a.u.)"}, {"sequence": "GAAAACGTGTCACGAATCGTCACGTATAAATTGCACTGTGCGGAGTCACCTAGTGCAG", "binding signal": "3300 fluorescence intensity (a.u.)"}, {"sequence": "CCAAATTGTTGTTGCCACATCCTTGATCGTATGCTTCTTACGGAGTCACCTAGTGCAG", "binding signal": "3420 fluorescence intensity (a.u.)"}, {"sequence": "AGCGTGTGTATCGGGTTCAGTTGGAGACGTGGCGTCGTGCCGGAGTCACCTAGTGCAG", "binding signal": "6850 fluorescence intensity (a.u.)"}, {"sequence": "ACTAGCAGCCCACACACTGCCACTGCATAGGTTACGAGTTCGGAGTCACCTAGTGCAG", "binding signal": "3620 fluorescence intensity (a.u.)"}, {"sequence": "GGACGTTCTCGTATTATTATATCCAGACCTCTATAGTAGTCGGAGTCACCTAGTGCAG", "binding signal": "28100 fluorescence intensity (a.u.)"}, {"sequence": "ATATCAAACACGGTGGCAGGATCAAAGTCAGCTCTCTCTTCGGAGTCACCTAGTGCAG", "binding signal": "3660 fluorescence intensity (a.u.)"}, {"sequence": "ACGATAAGCCGGCGACACAAGCATCCACATCATAGAAATCCGGAGTCACCTAGTGCAG", "binding signal": "6040 fluorescence intensity (a.u.)"}, {"sequence": "TGACAGAGATGGCGGTTCGGTGAGGTGTAGCACGCGTGTGCGGAGTCACCTAGTGCAG", "binding signal": "3710 fluorescence intensity (a.u.)"}, {"sequence": "CTCTTACCCATTAGGTACGTGGGTATGGGTATGTTCTTTACGGAGTCACCTAGTGCAG", "binding signal": "3610 fluorescence intensity (a.u.)"}, {"sequence": "CCATGTTAGTAGATAGCTTTGCTCTCTCTCTTCATTTAATCGGAGTCACCTAGTGCAG", "binding signal": "5650 fluorescence intensity (a.u.)"}, {"sequence": "TGGAACCCGCCCTCGTACATCTGGTGGATCTCGTACACGTCGGAGTCACCTAGTGCAG", "binding signal": "4200 fluorescence intensity (a.u.)"}, {"sequence": "CACTGATTTTAGGAGTTGAGGGACGCGTCATACAGTCATACGGAGTCACCTAGTGCAG", "binding signal": "6770 fluorescence intensity (a.u.)"}, {"sequence": "GCAGCGCCATGAAAGCGCATGGCATGCATGCACTGCACTGCGGAGTCACCTAGTGCAG", "binding signal": "3520 fluorescence intensity (a.u.)"}, {"sequence": "ACGTGCAGGGGTTCTACGTCGTCACCTACGGCCTCGGCATCGGAGTCACCTAGTGCAG", "binding signal": "3870 fluorescence intensity (a.u.)"}, {"sequence": "TCCCTCTGACATGGTTCATTGATAGGTGGACTCTCTATTCCGGAGTCACCTAGTGCAG", "binding signal": "3240 fluorescence intensity (a.u.)"}, {"sequence": "GACCTCGTCTTCCTCCTCCACCTCCTCGCGACCTCGCATTCGGAGTCACCTAGTGCAG", "binding signal": "3360 fluorescence intensity (a.u.)"}, {"sequence": "CTCTATATATACGTGTGTACCCTGCAGGACAAGCCAGTGTCGGAGTCACCTAGTGCAG", "binding signal": "4480 fluorescence intensity (a.u.)"}, {"sequence": "ATCCAATGGAGCTACCTAAGCTACCACGTATACATGTACCCGGAGTCACCTAGTGCAG", "binding signal": "6560 fluorescence intensity (a.u.)"}, {"sequence": "ACGGCCTCATGCCATCGCCTGACACGTACGCCCGATCTCCCGGAGTCACCTAGTGCAG", "binding signal": "9730 fluorescence intensity (a.u.)"}, {"sequence": "GTTGGCGACGTTCCACGTCCATAGGCCCATTTAGGCCCATCGGAGTCACCTAGTGCAG", "binding signal": "4660 fluorescence intensity (a.u.)"}, {"sequence": "CCGATGTGTCATAGGATCCACATGTCAGTGACAATGTCACCGGAGTCACCTAGTGCAG", "binding signal": "3760 fluorescence intensity (a.u.)"}, {"sequence": "AAGTAATGACCACATCACCAGATCACCTCAGAGCTGGCTGCGGAGTCACCTAGTGCAG", "binding signal": "6330 fluorescence intensity (a.u.)"}, {"sequence": "GTACATCCACGCACGCAGGGCGGTCTTGCGACACCACCGACGGAGTCACCTAGTGCAG", "binding signal": "3900 fluorescence intensity (a.u.)"}, {"sequence": "TATTTTGGACATTTGGATTGAATATTTCTTTCCACTATGCCGGAGTCACCTAGTGCAG", "binding signal": "3590 fluorescence intensity (a.u.)"}, {"sequence": "CCACTCTCCAGCGAGGCAGCGAATACGTATGCATCTGCTCCGGAGTCACCTAGTGCAG", "binding signal": "5340 fluorescence intensity (a.u.)"}, {"sequence": "GCAGCCTAATAATAAAACTAATTACATGTATGAGAGCTAACGGAGTCACCTAGTGCAG", "binding signal": "28100 fluorescence intensity (a.u.)"}, {"sequence": "CGCAGAAGATCTCCAATTGCCAGGTCAGCCTCCCACGGCCCGGAGTCACCTAGTGCAG", "binding signal": "16900 fluorescence intensity (a.u.)"}]}]}
